US20200054723A1
These are yes or no findings as the source states them, for the method shown. Some binding calls cover weakened binding; strength is not graded here.

Amino acid sequences for entries named in this document (tags omitted). Residues count along the entry.
UniProt Q9NYZ4, residues 17-363: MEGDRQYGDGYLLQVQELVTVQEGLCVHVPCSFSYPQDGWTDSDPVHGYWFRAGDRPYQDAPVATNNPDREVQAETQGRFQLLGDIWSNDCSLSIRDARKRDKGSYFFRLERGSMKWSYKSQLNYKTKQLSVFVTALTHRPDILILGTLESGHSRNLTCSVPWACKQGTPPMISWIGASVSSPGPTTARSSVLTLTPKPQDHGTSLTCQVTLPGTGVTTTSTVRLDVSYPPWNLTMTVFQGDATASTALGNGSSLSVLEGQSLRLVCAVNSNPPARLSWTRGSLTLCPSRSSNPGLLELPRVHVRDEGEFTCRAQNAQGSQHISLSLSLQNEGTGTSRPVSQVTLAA

What was measured:
[1] = molecular target: recombinant human Siglec-8 extracellular domain (ECD) (human) (UniProt Q9NYZ4); experiment: ELISA, coated Siglec-8 ECD
[2] = molecular target: Dimeric Siglec-8 (human Siglec-8 ECD protein) (human) (UniProt Q9NYZ4); experiment: SPR (Biacore), antibody captured, dimeric Siglec-8 as analyte

binding [1]	binding [2]	Binder
binds		HAKB (antibody, human IgG1, V domains shown) VH: EVQLVESGGGLVQPGGSLRLSCAASGFSLTIYGAHWVRQAPGKGLEWVSVIWAGGSTNYNSALMSRFTISKDNSKNTVYLQMNSLRAEDTAVYYCARDGSSPYYYSMEYWGQGTTVTVSS VL: EIILTQSPATLSLSPGERATLSCSATSSVSYMHWFQQKPGQAPRLWIYSTSNLASGVPARFSGSGSGTDYTLTISSLEPEDFAVYYCQQRSSYPFTFGPGTKLDIK
	binds	HEKF IgG1 antibody (antibody, V domains shown) VH: EVQLVESGGGLVQPGGSLRLSCAASGFSLTIYGAHWVRQAPGKGLEWVGVIWAGGSTNYNSALMSRFTISKDNSKNTVYLQMNSLRAEDTAVYYCARDGSSPYYYSMEYWGQGTTVTVSS VL: EIVLTQSPATLSLSPGERATLSCSATSSVSYMHWFQQKPGQAPRLLIYSTSNLASGIPARFSGSGSGTDYTLTISSLEPEDFAVYYCQQRSSYPFTFGPGTKLDIKR
binds		HB2KG (antibody, V domains shown) VH: QVQLQESGPGLVKPSETLSLTCTVSGFSLTIYGAHWVRQPPGKGLEWLGVIWAGGSTNYNSALMSRLSISKDNSKNQVSLKLSSVTAADTAVYYCARDGSSPYYYSMEYWGQGTLVTVSS VL: EIVLTQSPATLSLSPGERATLSCSATSSVSYMHWYQQKPGQAPRLLIYSTSNLASGIPARFSGSGSGTDFTLTISSLEPEDFAVYYCQQRSSYPFTFGPGTKLDIK
